The values below come from publication PMC10163288.

The list shows a part of the results.

B1: il10ra_site1_normal_mot_8756ee2cf497b5429c717dfc0c0bcfd6_0001_000000186_0001_1_13_H_._HHH_b1_04220_af2_0001_0000300023_0000001_1_af2pred_0001 (protein)
chain: SSSSSEEAREIVRLLRRIAELLAEGDDEEARELLEEAEELARETNDLIAEAVIRFLLKQVESSSS
B2: il10ra_site1_normal_mot_HHH_b2_01397_000000078_0001_23_39_H_._118502477c40609e6006f550458cdfaf_0001_0001_0000400042_0000002_0_af2pred_0001 (protein)
chain: SELEEEFEKALEKGTVEEFLRRLLEELEKEGDPRSALAVRFAIRVVEHGNPEVAKLFLKAIVDLR
B3: il10ra_site1_normal_mot_HHH_b2_07579_000000077_0001_1_19_H_._HHH_b1_05859_0001_0000100017_0000001_0_af2pred_0001 (protein)
chain: SSSSSLEEELIKLIRKAAELLSEGNPEEAQEVVEEAIELARELGNELALKIAEALLRQIESSSSS
B4: il10ra_site1_normal_mot_b26a303360aa2756ef5b79665ce52f45_0001_000000179_0001_1_11_H_._HHH_b2_08001_af2_0001_0000900021_0000001_0_af2pred_dldesign_0_af2pred (protein)
chain: SSSSSSSEAEKIVELIRKASELEDKEEAKKVLEEALELAKKAKNPVYVYAVEYALSQLSSSSSSS
B5: il10ra_site1_sap_28_mot_HHH_b2_07488_000000216_0001_1_17_H_._HHH_b2_03105_0001_0000100001_0000002_0_0001_af2pred_0001 (protein)
chain: SSSSSEEVFKRVAELLAEASRAARKDPEKAEEILEEARQLAEENNDPALKYAVEFIEERVSSSSS
B6: il10ra_site1_sap_11_mot_HHH_b1_05357_000000034_0001_23_39_H_._HHH_b2_08187_0002_0000100013_0000001_0_0001 (protein)
chain: SSSSDEDERYLRLALRFARWLIEVGDERAARRILEAIRDIAKRANDEEALEEAQRLLEEVGSSSS
B7: il10ra_site1_sap_36_mot_HHH_b2_02736_000000092_0001_22_38_H_._HHH_b1_05500_af2_0001_0000400033_0000001_0_0001_af2pred_dldesign_0_af2pred (protein)
chain: SPELDRIIELYEAGKPEEAALLAAALRRRAREAGDPERVAGLFEILCLLYAGKPEEARALAERLS
B8: il10ra_site1_normal_mot_HHH_b2_01310_000000089_0001_41_55_H_._HHH_b2_07107_af2_0003_0000100001_0000001_0 (protein)
chain: SSSSDEELQELFEEARELIENGNPEEAVELLQRLVQLAFRLQDEEALRLVLELAELLRELSSSSS
B9: il10ra_site1_normal_mot_HHH_b2_04275_000000272_0001_20_36_H_._HHH_b1_02719_af2_0001_0000100005_0000001_0 (protein)
chain: SSSSSSERIYELLRKLSELIHEGNEEEAQEVIEELRELIEKNNNDVARAQLEFLERHLEGSSSSS
B10: il10ra_site1_sap_19_mot_HHH_b1_00123_000000192_0001_20_37_H_._HHH_b1_05978_af2_0001_0000600017_0000001_0_0001 (protein)
chain: SSSSSSDVEELIEEAEELLEEGDPRKAIRALQEAVELAFRLGDEELLRRIWELAKRVASSSSSSS
B11: il10ra_site1_sap_25_mot_HHH_b2_04050_000000291_0001_1_20_H_._HHH_b1_05968_af2_0001_0000100006_0000001_0_0001 (protein)
chain: SSSSRWVERSFEAARHLLEAGDIEYAKLAIRFLEALAEATNDPEARELVEELKELLEEIEKSSSS
B12: il10ra_site1_normal_mot_82a85cb19d3401380e8a5036dcc53c2d_0001_af2_000000275_0001_3_13_H_._HHH_b2_06737_0001_0000100007_0000001_0_af2pred_0001 (protein)
chain: SSSSSEDEERVEELLEEAKEIEDRERRYQVLLEAYLLALQSNDPELEELVKRVAVELSEESSSSS
B13: il10ra_site1_sap_20_mot_HHH_b2_02053_af2_000000006_0001_3_19_H_._HHH_b2_05169_0001_0000100005_0000001_0_0001_af2pred_0001 (protein)
chain: SSSSSSESEELVRLIREAVKLLLDGNPEEAQRVAEEAFELAEEAGNLNLLAVIEYLLRRISSSSS
B14: il10ra_site1_sap_21_mot_HHH_b2_04679_000000194_0001_21_38_H_._HHH_b2_05720_0001_0000200026_0000001_0_0001 (protein)
chain: SSSADEHYEEIERVVQEADELYRNGNPEEAEELLEEAAKRAEEAGDWVLLQVLEMLLRLIRSSSS
B15: il10ra_site1_sap_19_mot_HHH_b1_06798_000000292_0001_1_19_H_._HHH_b1_00992_0001_0000100011_0000001_0_0001 (protein)
chain: SSSSTVEESLKVTLELIEQLLRLGDRERAREIIEILKKYIEEARDEEAREILEKLEEEVNSSSSS
B16: il10ra_site1_sap_20_mot_HHH_b1_05056_000000217_0001_1_20_H_._HHH_b1_04481_0001_0000300038_0000001_0_0001 (protein)
chain: SSSSSEEAEEVWEILREVLELLAQGDPEEAEELVRKALELAEELGDFIFERSARMLLELARSSSS
B17: il10ra_site1_normal_mot_HHH_b2_04275_000000272_0001_20_36_H_._HHH_b1_02719_af2_0001_0000100005_0000001_0_af2pred_dldesign_0_af2pred (protein)
chain: SSSSSNEEVYRLLREYAELLAAGKREEAAKVRKELKELIEKLNNEVAKYTLDYLERHELESSSSS
B18: il10ra_site1_sap_25_mot_HHH_b2_07388_000000275_0001_18_35_H_._7abaf38a3307e851c9e6880adce6b300_0001_1_0001_0000100003_0000001_0_0001_af2pred_0001 (protein)
chain: SSSSDEEEEEVEKLLEELEKLLERGDREEVFRLFREAARIIAELRDEEAFRRLQELLKRLFSSSS

In the assay the target is il10ra, Q13651. Put plainly: yeast display titration.
As to B1, the “apparent Kd” value is “inactive: no binding seen”.
As for B2, the entry is “inactive: no binding seen”.
As for B3, the entry is “inactive: no binding seen”; as for B4, “inactive: no binding seen”; as for B5, “inactive: no binding seen”.
As for B6, the entry is “inactive: no binding seen”; as for B7, “inactive: no binding seen”.
Take B8: the “apparent Kd” value was “inactive: no binding seen”.
Under B9 stands “inactive: no binding seen”; under B10, “inactive: no binding seen”; under B11, “inactive: no binding seen”.
As for B12, the entry is “inactive: no binding seen”; as for B13, “inactive: no binding seen”.
Under B14 stands “inactive: no binding seen”; under B15, “inactive: no binding seen”; under B16, “inactive: no binding seen”.
Take B17: the “apparent Kd” value is “inactive: no binding seen”.
As for B18, the entry is “inactive: no binding seen”.
